Source: article PMC7227406, “Protein Phosphatases Type 2C Group A Interact with and Regulate the Stability of ACC Synthase 7 in Arabidopsis” (Cells, 2020)
Results are given in words; binding and its absence hold for the method and conditions named. In cells and extracts the contact can be indirect. A result given as binding can be weak or reduced; the word gives no strength. For some assays here: Where a sequence is shown, tags or fusion partners need not be part of it.

The chains behind the UniProt entries cited, without tags or fusion partners. Where a name states a change or a piece, a line headed by the entry shows the natural chain unless it says otherwise.
UniProt Q9CAJ0: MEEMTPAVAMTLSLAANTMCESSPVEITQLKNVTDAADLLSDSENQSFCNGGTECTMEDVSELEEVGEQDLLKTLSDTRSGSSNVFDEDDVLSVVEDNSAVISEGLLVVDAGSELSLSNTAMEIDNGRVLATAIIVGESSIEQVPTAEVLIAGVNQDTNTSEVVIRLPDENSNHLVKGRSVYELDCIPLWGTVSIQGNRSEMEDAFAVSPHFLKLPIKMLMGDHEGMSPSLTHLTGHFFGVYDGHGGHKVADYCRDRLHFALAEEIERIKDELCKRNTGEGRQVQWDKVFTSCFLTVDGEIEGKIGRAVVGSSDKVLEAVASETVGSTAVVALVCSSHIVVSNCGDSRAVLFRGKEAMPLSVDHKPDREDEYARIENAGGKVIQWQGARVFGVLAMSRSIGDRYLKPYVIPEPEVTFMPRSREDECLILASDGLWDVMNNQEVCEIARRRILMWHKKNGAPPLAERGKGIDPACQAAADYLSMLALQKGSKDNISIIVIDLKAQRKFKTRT

Key:
Assay in all cases: split reporter; multicolor BiFC (mcBiFC) in Arabidopsis leaf mesophyll protoplasts; plasmids for nVenus and cCFP fusions mixed 1:1, PEG-mediated transformation, overnight at room temperature; confocal microscopy, 488 nm excitation, 500–550 nm emission; CBP20–RFP as transformation control and nuclear marker
[1] = target: T1, nVenus–ACS7 (1-aminocyclopropane-1-carboxylate synthase 7 fused with the N-terminal fragment of Venus) (Arabidopsis thaliana) (UniProt Q9STR4)
T1 sequence: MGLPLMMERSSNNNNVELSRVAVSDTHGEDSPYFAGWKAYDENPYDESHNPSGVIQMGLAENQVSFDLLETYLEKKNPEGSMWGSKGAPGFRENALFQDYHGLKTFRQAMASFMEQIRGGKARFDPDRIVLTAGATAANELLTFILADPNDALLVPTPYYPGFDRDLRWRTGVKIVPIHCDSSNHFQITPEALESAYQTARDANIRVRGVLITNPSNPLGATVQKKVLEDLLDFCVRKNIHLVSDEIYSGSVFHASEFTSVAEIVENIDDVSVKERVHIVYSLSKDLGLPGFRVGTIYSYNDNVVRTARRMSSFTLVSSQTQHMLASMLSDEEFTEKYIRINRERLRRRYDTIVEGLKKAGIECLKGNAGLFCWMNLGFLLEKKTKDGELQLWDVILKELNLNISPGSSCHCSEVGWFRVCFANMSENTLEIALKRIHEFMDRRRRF

[2] = target: T2, nVenus–ACS7 Δ1 (ACS7^1–50) (Arabidopsis thaliana) (UniProt Q9STR4)
T2 sequence: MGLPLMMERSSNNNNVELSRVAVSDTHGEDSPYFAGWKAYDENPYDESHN

[3] = target: T3, nVenus–ACS7 Δ2 (ACS7^1–100) (Arabidopsis thaliana) (UniProt Q9STR4)
T3 sequence: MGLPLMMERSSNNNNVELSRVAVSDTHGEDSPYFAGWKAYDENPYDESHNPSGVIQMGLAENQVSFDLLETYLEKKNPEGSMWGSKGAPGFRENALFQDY

[4] = target: T4, nVenus–ACS7 Δ3 (ACS7^200–447) (Arabidopsis thaliana) (UniProt Q9STR4)
T4 sequence: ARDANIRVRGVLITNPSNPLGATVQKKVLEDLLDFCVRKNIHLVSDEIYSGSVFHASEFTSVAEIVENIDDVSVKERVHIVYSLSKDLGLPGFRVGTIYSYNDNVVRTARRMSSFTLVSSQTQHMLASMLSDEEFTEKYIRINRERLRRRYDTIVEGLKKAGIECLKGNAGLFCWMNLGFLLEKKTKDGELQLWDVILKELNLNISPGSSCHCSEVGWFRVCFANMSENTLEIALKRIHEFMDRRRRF

[5] = target: T5, nVenus–ACS7 Δ4 (ACS7^101–447) (Arabidopsis thaliana) (UniProt Q9STR4)
T5 sequence: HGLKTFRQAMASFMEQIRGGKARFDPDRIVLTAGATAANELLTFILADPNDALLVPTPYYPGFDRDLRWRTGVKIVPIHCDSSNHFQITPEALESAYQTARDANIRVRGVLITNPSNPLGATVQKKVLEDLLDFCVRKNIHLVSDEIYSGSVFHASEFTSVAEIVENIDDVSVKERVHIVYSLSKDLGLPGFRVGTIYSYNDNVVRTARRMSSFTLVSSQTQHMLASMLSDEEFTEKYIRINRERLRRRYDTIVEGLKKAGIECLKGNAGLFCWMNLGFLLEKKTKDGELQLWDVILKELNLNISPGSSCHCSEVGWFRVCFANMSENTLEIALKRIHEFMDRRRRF

Measured: binding

cCFP–HAB1 (protein phosphatase type 2C HAB1 fused with the C-terminal fragment of CFP) (from UniProt Q9CAJ0) (enzyme)
binds: all assays above
